Data from PubChem BioAssay (EPA / NIEHS).
For part of these data: Most of the hits are listed elsewhere, so they are rarer here than in the full data. A structure can be active in one record and inactive in another. The list shows a part of the results, in another mix than the full data. Records with an inconclusive call do not appear. Activity calls are given as the source filed them. How the source made its calls, unless noted: active means hit-call score of the fitted dose curve at least 0.9, where 1 is the maximum; inactive means score below 0.9.

By UniProt entry, the sequences of proteins in these tests, tags left out.
UniProt P04637, whole entry, looked up: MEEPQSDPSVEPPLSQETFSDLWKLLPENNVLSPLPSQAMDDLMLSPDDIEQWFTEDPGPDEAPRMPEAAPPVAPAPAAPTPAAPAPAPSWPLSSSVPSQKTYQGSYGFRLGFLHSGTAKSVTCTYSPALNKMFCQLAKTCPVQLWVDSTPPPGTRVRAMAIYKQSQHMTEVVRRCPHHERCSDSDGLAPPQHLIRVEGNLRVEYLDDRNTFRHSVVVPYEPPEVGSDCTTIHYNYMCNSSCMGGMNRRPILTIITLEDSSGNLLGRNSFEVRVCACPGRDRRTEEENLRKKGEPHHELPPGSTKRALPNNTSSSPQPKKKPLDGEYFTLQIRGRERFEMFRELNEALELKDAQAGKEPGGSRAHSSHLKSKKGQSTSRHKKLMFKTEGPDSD

Tests used:
[1] = read-out: Peroxisomal acyl-coenzyme A oxidase 1 (ACOX1) gene, ACOX1 (gene 51); assay: LTEA_HepaRG_ACOX1: Life Technologies and Expression Analysis (LTEA) Assay for Peroxisomal acyl-coenzyme A oxidase 1 (ACOX1) gene using HepaRG (AID 2283467); details: actives raise or lower the signal; mRNA level, 48 h
Procedure, shortened: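 ACOX1 transcript levels were quantified by TaqMan qRT-PCR against three housekeeping genes after 48 h chemical exposure of differentiated human HepaRG cells. Exposure used eight half-log steps topping at 100 uM, 0.5% DMSO vehicle, in duplicate. Bidirectional curve fits were made relative to DMSO.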

[2] = read-out: Cytochrome P450 (CYP1A2), CYP1A2 (gene 1544); assay: LTEA_HepaRG_CYP1A2: Life Technologies and Expression Analysis (LTEA) Assay for Cytochrome P450 (CYP1A2) using HepaRG (AID 2283479); details: actives raise or lower the signal; mRNA level, 48 h;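 further: TaqMan qRT-PCR transcript level normalized to ACTB GAPDH and POLR2A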
Procedure, shortened: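 CYP1A2 transcript measured by TaqMan qRT-PCR against three housekeeping genes after 48-hour chemical exposure of HepaRG cells. Eight-point half-log series topping at 100 uM in 0.5% DMSO, duplicates; gain or loss fitted relative to vehicle.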

[3] = read-out: CYP2C8 (gene 1558); assay: LTEA_HepaRG_CYP2C8: Life Technologies and Expression Analysis (LTEA) Assay for CYP2C8 using HepaRG (AID 2283483); details: actives raise or lower the signal; mRNA level, 48 h
Procedure, shortened: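 CYP2C8 expression measured by TaqMan qRT-PCR and normalized to three housekeeping genes. HepaRG cultures were treated for 48 h with an eight-point half-log series topping at 100 uM, vehicle 0.5% DMSO, duplicates; fitted both directions against DMSO.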

[4] = read-out: CYP2C9 (gene 1559); assay: LTEA_HepaRG_CYP2C9: Life Technologies and Expression Analysis (LTEA) Assay for CYP2C9 using HepaRG (AID 2283484); details: actives raise or lower the signal; mRNA level, 48 h
Procedure, shortened: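 CYP2C9 transcript level, quantified by TaqMan qRT-PCR against three housekeeping genes, was fitted bidirectionally relative to 0.5% DMSO. HepaRG cultures were treated 48 h, in duplicate, at eight half-log concentrations topping at 100 uM.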

[5] = read-out: Insulin-like growth factor-binding protein 1 (IGFBP1), IGFBP1 (gene 3484); assay: LTEA_HepaRG_IGFBP1: Life Technologies and Expression Analysis (LTEA) Assay for Insulin-like growth factor-binding protein 1 (IGFBP1) using HepaRG (AID 2283508); details: actives raise or lower the signal; mRNA level, 48 h
Procedure, shortened: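 Read-out is qRT-PCR transcript level normalized to three housekeeping genes, fitted in both directions against 0.5% DMSO. Differentiated HepaRG cells received eight half-log concentrations (top 100 uM) in duplicate for 48 h in serum-free induction medium.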

[6] = read-out: Phosphatase and tensin (PTEN), PTEN (gene 5728); assay: LTEA_HepaRG_PTEN: Life Technologies and Expression Analysis (LTEA) Assay for Phosphatase and tensin (PTEN) using HepaRG (AID 2283523); details: actives raise or lower the signal; mRNA level, 48 h
Procedure, shortened: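 Read-out: TaqMan qRT-PCR of PTEN transcript, normalized to three housekeeping genes, fitted in both directions against 0.5% DMSO. Differentiated human HepaRG cultures received chemicals for 48 h, eight-point half-log series topping at 100 uM.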

[7] = read-out: Transforming Growth Factor (TGFA), TGFA (gene 7039); assay: LTEA_HepaRG_TGFA: Life Technologies and Expression Analysis (LTEA) Assay for Transforming Growth Factor (TGFA) using HepaRG (AID 2283532); details: actives raise or lower the signal; mRNA level, 48 h
Procedure, shortened: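 TGFA transcript quantified by qRT-PCR (Fluidigm arrays) against three housekeeping genes, after 48 hours chemical treatment of HepaRG cells. Top concentration 100 uM with half-log dilutions, 8 points, duplicates, 0.5% DMSO.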

[8] = read-out: Cellular tumor antigen p53 (Homo sapiens) (UniProt P04637); assay: LTEA_HepaRG_TP53: Life Technologies and Expression Analysis (LTEA) Assay for Tumor Protein P53 (TP53) using HepaRG (AID 2283537); details: actives raise or lower the signal; mRNA level, 48 h
Procedure, shortened: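 TP53 transcript measured by qRT-PCR, normalized to three housekeeping genes, after 48 h treatment of human HepaRG cultures with chemicals from 100 uM downward in half-log steps (0.5% DMSO vehicle, serum-free induction medium). Up- or down-regulation fitted against DMSO.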

[9] = read-out: UDP glucuronosyltransferase (UGT1A1), UGT1A1 (gene 54658); assay: LTEA_HepaRG_UGT1A1: Life Technologies and Expression Analysis (LTEA) Assay for UDP glucuronosyltransferase (UGT1A1) using HepaRG (AID 2283538); details: actives raise or lower the signal; mRNA level, 48 h
Procedure, shortened: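 UGT1A1 transcript level, measured by qRT-PCR with three housekeeping genes for normalization, after 48 h treatment of human HepaRG cells (0.5% DMSO, duplicates, up to 100 uM, half-log steps, 8 points). Curves fit both directions against DMSO baseline.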

[10] = ATG_XTT_Cytotoxicity: Cytotoxicity Assessment in the Attagene TRANS-FACTORIAL HepG2 Assay (AID 2283584; active means hit-call score of the fitted dose curve at least 0.9, where 1 is the maximum)
Procedure, shortened: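 Viability endpoint from XTT after 24 h chemical exposure of reporter-transfected human HepG2 liver cells; signal loss fitted relative to DMSO negative control.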

[11] = TOX21_p53_BLA_p2_viability: Viability Assessment in the Tox21 HCT-116 p53 Agonism Beta-lactamase Assay, Phase 2 (AID 2283591; active means hit-call score of the fitted dose curve at least 0.9, where 1 is the maximum;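 further: compound exposure lasted 16 h at 37 °C; actives lower the ATP signal meaning cytotoxicity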)
Procedure, shortened: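 Cytotoxicity readout: CellTiter-Glo ATP luminescence, 30 min at room temperature, after the beta-lactamase read. Cells were HCT116 exposed 16 h at 37C to compounds pin-transferred at 217-fold dilution from DMSO stocks.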

[12] = Tanguay_ZF_120hpf_SWIM_legacy: (Legacy) Oregon State University Tanguay Lab 120 Hour Post-fertilization zebrafish Assay for Swim Bladder Malformation (AID 2283654; active means hit-call score of the fitted dose curve at least 0.9, where 1 is the maximum;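 further: swim bladder malformation in each larva scored yes or no under brightfield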)
Procedure, shortened: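 Scoring is binary for swim bladder defects at 120 hpf, by brightfield inspection of zebrafish larvae. Embryos were exposed singly from 6 hpf after pronase dechorionation, at 28C with 0.64% DMSO; mortality excluded scoring.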

Measured: AC50

O=S(=O)(O)C(F)(F)C(F)(F)C(F)(F)C(F)(F)C(F)(F)C(F)(F)C(F)(F)C(F)(F)F
active: [2] 15.3 µM | [4] 80 µM | [5] 75.2 µM | [7] 10.4 µM | [8] 59.9 µM | [9] 11 µM | [12] 45.1 µM
inactive: [1] | [3] | [6] | [10] | [11]
